Source: article PMC5996148
The other results are listed elsewhere or left out.

What was measured:
Assay in all cases: protein microarray (ProtoArray v5.0), streptavidin-Alexa Fluor 647
Conditions in all cases: 3'-biotin; 20 mM Tris (pH 7.5), 5 mM MgCl2, 100 mM KCl, 0.1% Tween-20, A/T-rich and random oligonucleotide blockers; temperature not stated; high values mean tight binding
POLE3 (human) = test system: POLE3 (human)
POLR2F (human) = test system: POLR2F (human)
POLR2H (human) = test system: POLR2H (human)
POLR2I (human) = test system: POLR2I (human)
PPAP2B (human) = test system: PPAP2B (human)
PPARG (human) = test system: PPARG (human)
PPBP (human) = test system: PPBP (human)
PPCDC (human) = test system: PPCDC (human)
PPM1A (human) = test system: PPM1A (human)
PPM1H (human) = test system: PPM1H (human)

GGGAGGCTGAGGCAGG [G4-1 biotinylated (PQS2)]
binding signal (POLE3 (human)): -0.352 z-score
binding signal (POLR2F (human)): -0.284 z-score
binding signal (POLR2H (human)): -0.308 z-score
binding signal (POLR2I (human)): -0.316 z-score
binding signal (PPAP2B (human)): -0.329 z-score
binding signal (PPARG (human)): -0.3 z-score
binding signal (PPBP (human)): -0.261 z-score
binding signal (PPCDC (human)): -0.326 z-score
binding signal (PPM1A (human)): -0.33 z-score
binding signal (PPM1H (human)): -0.288 z-score
